PubChem BioAssay AID540276 (National Center for Advancing Translational Sciences (NCATS), 2011)
Hit rate of the full screen: of about 300,000 compounds, about 5,400 (1.8%) were called active. The shares of active, inactive and inconclusive entries below differ from those in the screen. Calls follow the shape of the full dose curve; tested in HEK293 cells. A potency beside an inconclusive call is a rough fit, not a confirmed value.

Test: qHTS for inhibitors of binding or entry into cells for Marburg Virus
Details: Marburg virus pseudotyped entry inhibition, cell reporter; activity change, negative = inhibition: at 37.8 µM (top of the series) unless noted
% is scaled to controls: 0 for no effect and ±100 for the full control effect; potency is read from the fitted curve at half-maximal effect.

With CCc1ccc2c(c1)C1(NN=C(c3ccccc3)S1)C(=O)N2 (stereo unspecified) as the compound, how does the Potency read?
The Potency was inconclusive: 7.94 µM [inhibitor, partial curve, poor fit].

For O=[N+]([O-])c1ccc(C(=S)N2CCN(Cc3ccccc3)CC2)cc1, which Potency is on record?
Its Potency is inconclusive: 2.82 µM [inhibitor, partial curve, poor fit].

With COc1ccccc1NS(=O)(=O)c1cc(NC(=O)c2ccccc2C)ccc1N1CCOCC1 as the compound, how does the Potency read?
The Potency was inconclusive: 10 µM [inhibitor, partial curve, poor fit].

For O=C(CSc1ncc(-c2ccccc2)[nH]1)Nc1ccccc1F, which “activity change, negative = inhibition” value is on record?
The value was inactive: -2.62% [at 46.1 µM].

With Cc1ccsc1/C=N/NC(=O)CNC(=O)c1ccco1 as the compound, how does the Potency read?
The Potency was inconclusive: 17.8 µM [activator, single point].

Which “activity change, negative = inhibition” value does the source give for CC(C)CC(O)(c1ccccc1)C(CN1CCOCC1)c1ccccc1 (stereo unspecified) here?
The value was inactive: -9.52% [at 46.1 µM].

With COc1cc(/C=N/NC(=O)c2cc(C)oc2C)ccc1OCc1ccccc1 as the compound, how does the Potency read?
Its Potency is inconclusive: 3.55 µM [inhibitor, partial curve, poor fit].

For O=C(c1ccc(-c2cccc(C(F)(F)F)c2)o1)N1CCCCCCC1, which “activity change, negative = inhibition” value is on record?
The value was inactive: -24.4%.

With CCSc1nc(N2CCOCC2)c2c(c1C#N)CC(C)(C)N(C)C2 as the compound, how does the “activity change, negative = inhibition” value read?
Its value is inactive: -25.3% [at 46.1 µM].

Which “activity change, negative = inhibition” value does the source give for Cc1c(C(=O)NCCCN2CCOCC2)oc2c1C1(CCC2)SCCS1 here?
Its value is inactive: -15.9%.

Which “activity change, negative = inhibition” value does the source give for COCCNC(=O)/C(C#N)=C/c1cccs1 here?
Its value is inactive: 6.02% [at 46.1 µM].

With CS(=O)(=O)c1ncc(Cl)c(C(=O)N(Cc2ccc(Cl)cc2)Cc2ccco2)n1 as the compound, how does the Potency read?
Its Potency is inconclusive: 35.5 µM [inhibitor, single point].

For S=c1[nH]nc(COc2ccc3ccccc3c2)o1, which Potency is on record?
The Potency was inconclusive: 3.16 µM [activator, full curve, poor fit].

For CSc1ccc(S(=O)(=O)N(CC(=O)NCc2ccccn2)c2ccc(C)cc2)cc1, which Potency is on record?
The Potency was inconclusive: 3.55 µM [inhibitor, single point].

Which Potency does the source give for Cc1ccc(-c2nn3c(=O)c(C)nnc3s2)cc1 here?
The Potency was inconclusive: 23.1 µM [inhibitor, single point].

Which Potency does the source give for Cc1ccccc1NC(=S)NC(C)CCc1ccccc1 (stereo unspecified) here?
Its Potency is inconclusive: 1.26 µM [inhibitor, single point].

For COc1cccc(CNC(=O)C(Cc2ccccc2)NS(=O)(=O)c2ccc3c(c2)CCN3C(C)=O)c1 (stereo unspecified), which Potency is on record?
Its Potency is inconclusive: 6.31 µM [inhibitor, single point].

With COc1ccc(/C=C/C(=O)c2c(O)c(OC)c3occc3c2OC)cc1 as the compound, how does the Potency read?
Its Potency is inconclusive: 25.9 µM [inhibitor, partial curve, poor fit].

Which Potency does the source give for Cc1ccc(-n2cccc2/C=C2/C(=N)N3C(=NC2=O)SN=C3S(C)(=O)=O)cc1 here?
Its Potency is inconclusive: 11.2 µM [activator, single point].

Which Potency does the source give for Clc1cc(Cl)c(OCc2nc(-c3ccccn3)no2)cc1Cl here?
The Potency was inconclusive: 1.64 µM [activator, partial curve, poor fit].

Which “activity change, negative = inhibition” value does the source give for CCOC(=O)N=Nc1c(O)n(CC(=O)OC)c2ccccc12 here?
Its value is inactive: 5.35% [at 46.1 µM].

For COc1ccc(C(=O)OC(C)CN2CCOCC2)cc1OC (stereo unspecified), which “activity change, negative = inhibition” value is on record?
Its value is inactive: 12%.

For COc1cccc2cc(-c3nnc(-c4ccccc4)o3)c(=O)oc12, which Potency is on record?
Its Potency is inconclusive: 2.82 µM [activator, single point].

For Cc1ccc(-c2c(C(=O)N/N=C/c3cccnc3)nnn2-c2nonc2N)cc1, which Potency is on record?
The Potency was inconclusive: 15.8 µM [activator, partial curve, poor fit].

With COc1cc(CN2CCN(c3cccc(Cl)c3)CC2)cc(OC)c1OC as the compound, how does the “activity change, negative = inhibition” value read?
The value was inactive: -18.6%.

Which “activity change, negative = inhibition” value does the source give for CN(Cc1ccccc1F)C(=O)c1ccccc1Sc1ccccc1C#N here?
Its value is inactive: 19.3% [at 46.1 µM].

Which Potency does the source give for CCOc1ccc2[nH]c(=O)c(CN(CCO)C(=O)c3ccc(Br)cc3)cc2c1 here?
Its Potency is “inactive”.

Which Potency does the source give for CC1CCCN(C(=O)Cc2cccc3ccccc23)C1 (stereo unspecified) here?
Its Potency is inconclusive: 1.26 µM [activator, single point].

With COC(=O)Cc1ccc(NC(=S)NNC(=O)c2ccccc2Br)cc1 as the compound, how does the Potency read?
Its Potency is inconclusive: 8.91 µM [activator, single point].

For O=C(Cn1c(CN2CCCCC2)nc2ccccc2c1=O)NCc1ccco1, which “activity change, negative = inhibition” value is on record?
Its value is inactive: -6.44%.

Which Potency does the source give for O=C(Nc1ccccc1C(=O)NCC1CCCO1)c1ccccc1 (stereo unspecified) here?
The Potency was inconclusive: 0.73 µM [inhibitor, partial curve, poor fit].

For O=c1c(Cl)c(Cl)cnn1Cc1nnc(-c2ccccc2Br)o1, which Potency is on record?
Its Potency is inconclusive: 11.2 µM [inhibitor, partial curve, poor fit].

For CSc1nc(N)nc(SCC(=O)OC(C)C)c1C#N, which “activity change, negative = inhibition” value is on record?
The value was inactive: 13.1%.

Which Potency does the source give for COc1cc(/C=N/NC(=O)c2nnn(-c3nonc3N)c2C(C)C)ccc1OCc1ccc(F)cc1 here?
The Potency was inconclusive: 10 µM [inhibitor, partial curve, poor fit].

Which “activity change, negative = inhibition” value does the source give for Cc1noc(-c2ccc(N3CCCCC3C)c([N+](=O)[O-])c2)n1 (stereo unspecified) here?
Its value is inactive: -25.5% [at 46.1 µM].

For Cc1ccc(C(=O)N/N=C/c2ccc(-c3ccc(Br)cc3[N+](=O)[O-])o2)o1, which “activity change, negative = inhibition” value is on record?
Its value is inactive: -16%.

For COC(=O)CSc1nc(N2CCOCC2)c2c(c1C#N)CC(C)(C)N(C)C2, which “activity change, negative = inhibition” value is on record?
The value was inactive: 8.06%.

Which Potency does the source give for COc1ccc(/C=C2/CCc3ccccc3C2=O)cc1CN1CCOCC1 here?
Its Potency is inconclusive: 23.1 µM [inhibitor, partial curve, poor fit].

With O=C(COc1ccccc1)N1CCN(CC(O)COc2ccccc2)CC1 (stereo unspecified) as the compound, how does the “activity change, negative = inhibition” value read?
The value was inactive: -0.87%.

With C=CCn1c(SCc2csc(-c3ccc(C)cc3)n2)nnc1-c1ccccc1OC as the compound, how does the Potency read?
The Potency was inconclusive: 35.5 µM [inhibitor, single point].

For COc1ccccc1NS(=O)(=O)c1cc(NC(=O)c2cccs2)ccc1N1CCCC1, which Potency is on record?
Its Potency is inconclusive: 22.4 µM [inhibitor, partial curve, poor fit].

With COc1ccc(CC(=O)Nc2ccc(/C(C)=N\NC(=O)c3ccc(Br)o3)cc2)cc1 as the compound, how does the “activity change, negative = inhibition” value read?
The value was inactive: 23.6%.

With CC(=O)c1cccc(NC(=O)C2CCCN(S(=O)(=O)c3ccc(F)cc3)C2)c1 (stereo unspecified) as the compound, how does the “activity change, negative = inhibition” value read?
Its value is inactive: -12%.

Which Potency does the source give for COc1ccc(-c2nn(-c3ccccc3)cc2/C=C/C(=O)N2CCOCC2)cc1OC here?
Its Potency is inconclusive: 15.8 µM [inhibitor, single point].

Which “activity change, negative = inhibition” value does the source give for CC(OC(=O)c1ccccc1C(=O)N(C)Cc1ccccc1)C(=O)NC1(C#N)CCCCC1 (stereo unspecified) here?
The value was inactive: -10.1%.

For CCN(Cc1ccccc1)C(=O)c1ccc(N(C)S(=O)(=O)c2ccc(C)cc2)cc1, which Potency is on record?
Its Potency is inconclusive: 35.5 µM [inhibitor, single point].
